Measured values taken from patent US6656906B1, “Hybrid polypeptides with enhanced pharmacokinetic properties” (Trimeris, Inc., priority 1998, dated 2003).
Part of at least one peptide drawing is inferred or uncertain, most often the ends.

Tests used:
gp41 construct M41Δ178 [1] = biological target: T1, gp41 construct M41Δ178 (Human immunodeficiency virus type 1 group M subtype B, UniProt P03377); assay: Proteinase-K protection of M41Δ178, polyacrylamide gel electrophoresis
gp41 construct M41Δ178 [2] = biological target: T1, gp41 construct M41Δ178; assay: Competition binding assay for M41Δ178; conditions: compared with competition for 125I-T20
[3] = system: T1346 (45-residue peptide from the HR1 binding region of gp41); assay: Circular dichroism spectroscopy, alone and with HR1 peptide T1346; assay type: physicochemical; conditions: phosphate-buffered saline, pH 7
HIV-1 9320 = assay: In vivo HuPBMC-SCID mouse model of HIV-1 9320 infection; design: species or system SCID mice
Experimental: Female SCID mice (5-7 weeks old) received 5-10×10^7 adult human PBMC injected intraperitoneally. Two weeks after reconstitution, mice were infected IP on day 0 with 10^3 TCID50 HIV-1 9320 (AZT-sensitive isolate A018). Treatment with peptides was IP, bid, beginning day −1 and continuing through day 6. The extent of infection in blood cells, splenocytes, lymph nodes, and peritoneal cells was assayed by quantitative co-culture with human PBMC blasts weekly for three consecutive weeks following animal exsanguinations and tissue harvest (day 7, approximately 12-18 hours following the last drug treatment). Co-culture supernatants were evaluated for HIV-1 p24 antigen production as a measure of virus infection (Immunotek Coulter kits and protocol).
Two weeks after reconstitution with HuPBMCs, mice were infected IP on day 0 with 10^3 TCID50 HIV-1 9320 passed in PBMCs (AZT-sensitive isolate A018). […] The extent of infection in blood cells, splenocytes, lymph nodes, and peritoneal cells was assayed by quantitative co-culture with human PBMC blasts weekly for three consecutive weeks following animal exsanguinations and tissue harvest (day 7, approx. 12 to 18 hours following last drug treatment). Co-culture supernatants were evaluated for HIV-1 p24 antigen production as a measure of virus infection.

SIV isolate B670 = assay: Magi-CCR-5 infectivity assay; assay type: cell-based
HIV-2 NIHZ = assay: virus mediated cell-cell fusion assay (chronically infected CEM cells mixed with uninfected Molt-4 cells); assay type: cell-based
FIG.5 = assay: FIG.5
Source text: Table printed on a drawing sheet, FIG.5
The patent's description of the figure: FIG. 5.
First reader's note: The table is printed under a plasma concentration-time plot of the same two peptides, which is not copied.

Row | Molecule | susceptibility to proteinase K when incubated individually (gp41 construct M41Δ178 [1]) | protection of M41Δ178 from proteinase-K digestion (gp41 construct M41Δ178 [1]; T1249 incubated with M41Δ178 prior to addition of proteinase-K) | competition of unlabeled peptide for bound 125I-T1249 (gp41 construct M41Δ178 [2]) | interaction with T1346 in solution (CD spectrum vs non-interaction model) [3] | drop in infectious virus titer in lymph and spleen tissues (HIV-1 9320; 0.67 mg/kg total daily dose) [log10] | virus in peritoneal washes and blood (HIV-1 9320; 0.67 mg/kg total daily dose) | reduction in virus titer in the blood, compared to infected controls (HIV-1 9320; 2.0 mg/kg total daily dose) [log10] | reduction in virus titer in the peritoneal wash, compared to infected controls (HIV-1 9320; 2.0 mg/kg total daily dose) [log10] | infectious virus in lymph and spleen (HIV-1 9320; 2.0 mg/kg total daily dose, IP, bid, 8 days) | improvement over T20 treatment (HIV-1 9320; 6.7 mg/kg T1249 vs 67 mg/kg T20) [fold] | infectious virus in all compartments (HIV-1 9320; 6.7 mg/kg total daily dose, IP, bid, 8 days) | EC-50 (SIV isolate B670) | fusion inhibition (HIV-2 NIHZ) [ng/mL] | AUC[0-8] (FIG.5) [µg/h/mL]
1 | CC[C@H](C)[C@H](NC(=O)[C@H](CCC(N)=O)NC(=O)[C@H](C)NC(=O)[C@H](CCC(N)=O)NC(=O)[C@H](CCC(=O)O)NC(=O)[C@H](CC(C)C)NC(=O)[C@H](CC(C)C)NC(=O)[C@H](C)NC(=O)[C@@H](NC(=O)[C@@H](NC(=O)[C@H](CCCCN)NC(=O)[C@H](CCC(N)=O)NC(=O)[C@H](CCC(=O)O)NC(=O)[C@H](Cc1c[nH]c2ccccc12)NC(=O)[C@H](CCC(=O)O)NC(=O)[C@H](CCC(N)=O)NC(=O)[C@H](Cc1c[nH]c2ccccc12)NC(C)=O)[C@@H](C)CC)[C@@H](C)O)C(=O)N[C@@H](CCC(N)=O)C(=O)N[C@@H](CCC(N)=O)C(=O)N[C@@H](CCC(=O)O)C(=O)N[C@@H](CCCCN)C(=O)N[C@@H](CC(N)=O)C(=O)N[C@@H](CCC(=O)O)C(=O)N[C@@H](Cc1ccc(O)cc1)C(=O)N[C@@H](CCC(=O)O)C(=O)N[C@@H](CC(C)C)C(=O)N[C@@H](CCC(N)=O)C(=O)N[C@@H](CCCCN)C(=O)N[C@@H](CC(C)C)C(=O)N[C@@H](CC(=O)O)C(=O)N[C@@H](CCCCN)C(=O)N[C@@H](Cc1c[nH]c2ccccc12)C(=O)N[C@@H](C)C(=O)N[C@@H](CO)C(=O)N[C@@H](CC(C)C)C(=O)N[C@@H](Cc1c[nH]c2ccccc12)C(=O)N[C@@H](CCC(=O)O)C(=O)N[C@@H](Cc1c[nH]c2ccccc12)C(=O)N[C@@H](Cc1ccccc1)C(N)=O [T1249] | digested | a protected HR-1 fragment of approximately 6500 Daltons results | a higher concentration of either unlabeled T20 or T1249 is required | interact | ≥ 1 | equivalent to infected control | 1 | 2 | completely free of detectable infectious virus | ≥ 10 | negative for infectious virus | 21 | 4.3 | 
2 | Enfuvirtide |  |  |  |  |  |  |  |  |  |  |  |  |  | 26.12
